# Source: PubChem BioAssay AID588674 (Broad Institute, 2011)
# The whole screen tested about 360,000 compounds, of which about 1,800 (0.5%) were called active. This list was built around the results that the source calls inconclusive (neither active nor inactive); the mix of calls is not that of the screen.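 The calls were made as follows: active = mean inhibition of at least 75% with every replicate also reaching 75%; inconclusive = mean inhibition at least 75% but some replicate below; inactive = mean inhibition below 75%.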
# Assay: reduction of Shn3 3'UTR firefly luciferase signal, primary screen, Schnurri-3 inhibitor project, cell-based, Clone20 osteoblasts, set 2 (AID 588674);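 also: 0% = median of neutral control wells and 100% = pilot-screen positive control compound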
# Details: Clone20 osteoblast Shn3 3'UTR firefly luciferase, 24 h; at 12.5 µM; hits give high values
row,SMILES,inhibition
1,O=C(N/N=C/c1cc(Cl)ccc1O)c1ccncc1,inconclusive: 85.2%
2,Cc1ccc(CNC(=O)C(c2ccccc2)c2ccccc2)cc1,inactive: 28.1%
3,COc1cccc(/C=N/Nc2nc3ccccc3[nH]2)c1O,inconclusive: 85.6%
4,CC(/C=C/c1ccc(O)cc1)=N/O,inactive: -9.65%
5,COc1ccc(S(=O)(=O)N2CCN(C(=O)c3ccc([N+](=O)[O-])o3)CC2)cc1,inactive: 11.8%
6,CC(C)(C)Nc1nc(-c2ccccn2)nc2ccccc12,active: 89.7%
7,COc1cccc2sc(N(CCCN(C)C)C(=O)CCS(=O)(=O)c3ccccc3)nc12,active: 97.2%
8,O=C(/C=C/c1cccc(Cl)c1)c1ccc([N+](=O)[O-])o1,active: 95.3%
9,CCOC(=O)/C=C/C(=O)Nc1cccc([N+](=O)[O-])c1,inconclusive: 87.8%
10,O=C(NCCn1cc(SCc2ccccc2F)c2ccccc21)c1c(F)cccc1F,inconclusive: 82.1%
11,COc1ccc2c(c1)sc1nc(-c3ccccc3)cn12,inconclusive: 85.1%
12,Cc1nc(SCC(=O)Nc2nc3ccccc3s2)c(C#N)c(C)c1C,inconclusive: 85%
13,Cc1ccc(/C=[N+](\[O-])c2ccc(N(C)C)cc2)c2nsnc12,inconclusive: 86.5%
14,CCOC(=O)N1CCN(C(=O)CS(=O)(=O)Cc2nc(-c3ccccc3F)oc2C)CC1,inconclusive: 85.8%
15,Cc1noc(COc2ccccc2OCc2onc(C)c2Cl)c1Cl,inactive: 9.9%
16,N#Cc1ccc(-c2ccc(OCC(=O)Nc3cccnc3)cc2)cc1,active: 88.9%
17,CC(=NNC(=S)SCc1ccccc1)c1ccccn1,inconclusive: 84%
18,O=C1/C(=C\c2ccc(Cl)c(Cl)c2)CN(C(=O)CCN2CCOCC2)C/C1=C/c1ccc(Cl)c(Cl)c1,active: 98.7%
19,O=C(CN1C(=O)C2CCCCC2C1=O)NC1CCCc2ccccc21 (configuration not stated),inconclusive: 85.3%

row,SMILES,inhibition
1,CCCC[C@H](CN[C@@H](CNC)[C@H](C)CC)NCCC12CCC(CC1)C2,inconclusive: 85.1%
2,COc1ccc(NS(=O)(=O)c2cccc(NC(=O)c3ccc(S(=O)(=O)N4CCCCCC4)cc3)c2)cc1,inconclusive: 85.6%
3,COc1cc(OC)c(OC)cc1CNC(=O)c1cccc(S(=O)(=O)N2CCc3ccccc3C2)c1,inconclusive: 86.1%
4,CC(C)C[C@@H](CO)N(Cc1ccccc1)S(=O)(=O)N(Cc1ccccc1)[C@H](CO)CC(C)C,inconclusive: 86.7%
5,O=C(N/N=C/c1cn(-c2cccs2)nc1-c1ccccc1)c1ccccc1O,inactive: 11.9%
6,Cc1cc(C)cc(NS(=O)(=O)c2ccc3c(c2)c(=O)n(C)c(=O)n3C)c1,inconclusive: 81.9%
7,CC[n+]1c(/C=C/c2ccc(N(C)C)cc2)ccc2ccccc21,inconclusive: 85.3%
8,CC(=O)OC1CCC2(C)C(CCC3C4CC=C(C(C)=O)C4(C)OC(=O)CC32)C1 (configuration not stated),inconclusive: 86.6%
9,CN(C)S(=O)(=O)c1cccc(N=c2scc(-c3ccc4c(c3)NC(=O)CO4)n2CC2CCCO2)c1 (configuration not stated),active: 86.3%
10,COc1ccc(NC(=O)CCOc2cc(C)ccc2C)cc1S(=O)(=O)N1CCCCC1,active: 92.6%
11,Nc1nc(N)c2cc(CNc3ccc(Cl)c(Cl)c3)ccc2n1,inconclusive: 88.7%
12,Nc1nc(N)c(-c2cccc(C(F)(F)F)c2)c(Cc2cccc(C(F)(F)F)c2)n1,inconclusive: 87.1%
13,CCOC(=O)/C(=C\c1ccccc1)C(=O)c1cc(C(C)=O)c(Nc2ccccc2)s1,active: 97.9%
14,COc1ccc2nc(N=Nc3ccc(O)c4ccccc34)sc2c1,inconclusive: 85.7%
15,CCn1c(C)nc2cc(C(=O)NNC(=S)Nc3ccccc3)ccc21,inactive: -25.7%
16,O=[N+]([O-])c1ccc(-c2nc(Nc3cccc(O)c3)c3ccccc3n2)cc1,inactive: 26.2%
17,CCOc1ccc(/C=N/Nc2cc(N3CCOCC3)ncn2)c(O)c1,active: 92.5%
18,c1ccc(-n2nnnc2Sc2ncnc3sc4c(c23)CCCC4)cc1,inconclusive: 87.1%

# 8 compounds out of the list, ordered by heavy-atom count, high to low:
row,SMILES,inhibition
2,COc1ccc(NS(=O)(=O)c2cccc(NC(=O)c3ccc(S(=O)(=O)N4CCCCCC4)cc3)c2)cc1,inconclusive: 85.6%
3,COc1cc(OC)c(OC)cc1CNC(=O)c1cccc(S(=O)(=O)N2CCc3ccccc3C2)c1,inconclusive: 86.1%
10,COc1ccc(NC(=O)CCOc2cc(C)ccc2C)cc1S(=O)(=O)N1CCCCC1,active: 92.6%
12,Nc1nc(N)c(-c2cccc(C(F)(F)F)c2)c(Cc2cccc(C(F)(F)F)c2)n1,inconclusive: 87.1%
8,CC(=O)OC1CCC2(C)C(CCC3C4CC=C(C(C)=O)C4(C)OC(=O)CC32)C1 (configuration not stated),inconclusive: 86.6%
6,Cc1cc(C)cc(NS(=O)(=O)c2ccc3c(c2)c(=O)n(C)c(=O)n3C)c1,inconclusive: 81.9%
1,CCCC[C@H](CN[C@@H](CNC)[C@H](C)CC)NCCC12CCC(CC1)C2,inconclusive: 85.1%
7,CC[n+]1c(/C=C/c2ccc(N(C)C)cc2)ccc2ccccc21,inconclusive: 85.3%
